Measured values published in the supplement of paper PMC10849652.
The list shows a part of the results.

By UniProt entry, the sequences of proteins in these tests, tags left out. Where a name states a change or a piece, a line headed by the entry shows the natural chain unless it says otherwise.
UniProt Q8TDN6: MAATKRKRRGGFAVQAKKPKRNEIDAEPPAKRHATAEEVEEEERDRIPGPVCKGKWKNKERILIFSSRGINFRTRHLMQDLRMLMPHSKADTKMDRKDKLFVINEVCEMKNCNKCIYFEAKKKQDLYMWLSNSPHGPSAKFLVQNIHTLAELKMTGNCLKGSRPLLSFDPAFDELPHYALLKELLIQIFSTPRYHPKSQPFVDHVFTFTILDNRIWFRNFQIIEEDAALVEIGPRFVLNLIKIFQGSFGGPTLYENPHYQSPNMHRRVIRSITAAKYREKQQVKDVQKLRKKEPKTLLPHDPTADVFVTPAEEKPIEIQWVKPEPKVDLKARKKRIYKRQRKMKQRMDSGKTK
UniProt O95999: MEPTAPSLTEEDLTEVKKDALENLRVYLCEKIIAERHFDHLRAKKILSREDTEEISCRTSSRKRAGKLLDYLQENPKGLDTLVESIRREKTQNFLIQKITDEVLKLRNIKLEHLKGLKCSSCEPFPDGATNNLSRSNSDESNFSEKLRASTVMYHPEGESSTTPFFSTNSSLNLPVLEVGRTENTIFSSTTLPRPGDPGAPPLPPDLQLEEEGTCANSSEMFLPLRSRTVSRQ
UniProt Q9NSY1, whole entry, looked up: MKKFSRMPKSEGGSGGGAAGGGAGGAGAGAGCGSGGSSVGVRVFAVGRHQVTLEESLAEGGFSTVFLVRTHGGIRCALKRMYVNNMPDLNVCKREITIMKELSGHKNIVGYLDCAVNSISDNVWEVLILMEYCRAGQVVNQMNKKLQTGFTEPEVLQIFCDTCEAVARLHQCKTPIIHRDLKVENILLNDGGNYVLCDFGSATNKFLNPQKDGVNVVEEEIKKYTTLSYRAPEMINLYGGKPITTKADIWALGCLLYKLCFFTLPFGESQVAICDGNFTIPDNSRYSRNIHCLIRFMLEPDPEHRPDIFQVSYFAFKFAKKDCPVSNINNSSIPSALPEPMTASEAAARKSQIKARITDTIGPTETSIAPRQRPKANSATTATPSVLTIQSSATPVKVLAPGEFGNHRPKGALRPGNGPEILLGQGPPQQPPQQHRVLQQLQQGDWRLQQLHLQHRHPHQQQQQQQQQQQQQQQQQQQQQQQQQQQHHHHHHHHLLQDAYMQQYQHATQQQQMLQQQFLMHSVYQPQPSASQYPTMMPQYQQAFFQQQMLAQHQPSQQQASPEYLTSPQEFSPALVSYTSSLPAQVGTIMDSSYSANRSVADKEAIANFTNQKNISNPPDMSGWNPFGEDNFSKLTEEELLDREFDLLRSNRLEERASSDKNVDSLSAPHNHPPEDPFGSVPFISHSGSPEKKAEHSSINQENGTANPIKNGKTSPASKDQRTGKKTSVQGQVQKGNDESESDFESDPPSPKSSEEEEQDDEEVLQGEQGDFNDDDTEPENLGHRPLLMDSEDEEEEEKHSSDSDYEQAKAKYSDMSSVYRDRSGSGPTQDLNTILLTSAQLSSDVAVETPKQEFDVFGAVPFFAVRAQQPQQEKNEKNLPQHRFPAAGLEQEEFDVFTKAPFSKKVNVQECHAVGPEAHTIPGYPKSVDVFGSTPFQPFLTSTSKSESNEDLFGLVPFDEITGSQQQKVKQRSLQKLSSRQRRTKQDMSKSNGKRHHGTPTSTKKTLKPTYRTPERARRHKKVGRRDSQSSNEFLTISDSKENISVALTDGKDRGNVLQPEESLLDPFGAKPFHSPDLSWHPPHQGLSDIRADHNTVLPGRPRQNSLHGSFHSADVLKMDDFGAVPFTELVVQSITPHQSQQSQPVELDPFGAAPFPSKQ
UniProt Q9NUP1: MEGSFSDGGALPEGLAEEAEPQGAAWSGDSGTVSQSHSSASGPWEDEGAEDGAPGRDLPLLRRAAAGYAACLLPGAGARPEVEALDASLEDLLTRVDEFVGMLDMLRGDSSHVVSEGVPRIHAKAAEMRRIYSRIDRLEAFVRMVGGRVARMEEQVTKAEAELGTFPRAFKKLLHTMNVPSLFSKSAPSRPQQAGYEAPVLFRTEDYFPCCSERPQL
UniProt Q8WY22: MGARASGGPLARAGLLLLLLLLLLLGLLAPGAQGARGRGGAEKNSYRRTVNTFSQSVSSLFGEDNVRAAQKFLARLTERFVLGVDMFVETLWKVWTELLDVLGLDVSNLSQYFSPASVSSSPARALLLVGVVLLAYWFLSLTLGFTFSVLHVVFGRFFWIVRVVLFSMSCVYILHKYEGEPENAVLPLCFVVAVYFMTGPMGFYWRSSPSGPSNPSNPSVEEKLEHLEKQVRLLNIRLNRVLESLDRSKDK
UniProt Q9P287, whole entry, looked up: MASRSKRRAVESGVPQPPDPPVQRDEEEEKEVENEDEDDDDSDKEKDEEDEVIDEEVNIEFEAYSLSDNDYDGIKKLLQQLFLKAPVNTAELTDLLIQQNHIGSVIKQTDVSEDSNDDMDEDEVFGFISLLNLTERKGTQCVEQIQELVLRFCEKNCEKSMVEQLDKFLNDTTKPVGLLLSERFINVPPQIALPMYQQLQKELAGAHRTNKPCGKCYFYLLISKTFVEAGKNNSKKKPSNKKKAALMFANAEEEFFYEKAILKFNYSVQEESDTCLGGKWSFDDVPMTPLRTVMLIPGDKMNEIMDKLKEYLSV
UniProt Q9H6U6: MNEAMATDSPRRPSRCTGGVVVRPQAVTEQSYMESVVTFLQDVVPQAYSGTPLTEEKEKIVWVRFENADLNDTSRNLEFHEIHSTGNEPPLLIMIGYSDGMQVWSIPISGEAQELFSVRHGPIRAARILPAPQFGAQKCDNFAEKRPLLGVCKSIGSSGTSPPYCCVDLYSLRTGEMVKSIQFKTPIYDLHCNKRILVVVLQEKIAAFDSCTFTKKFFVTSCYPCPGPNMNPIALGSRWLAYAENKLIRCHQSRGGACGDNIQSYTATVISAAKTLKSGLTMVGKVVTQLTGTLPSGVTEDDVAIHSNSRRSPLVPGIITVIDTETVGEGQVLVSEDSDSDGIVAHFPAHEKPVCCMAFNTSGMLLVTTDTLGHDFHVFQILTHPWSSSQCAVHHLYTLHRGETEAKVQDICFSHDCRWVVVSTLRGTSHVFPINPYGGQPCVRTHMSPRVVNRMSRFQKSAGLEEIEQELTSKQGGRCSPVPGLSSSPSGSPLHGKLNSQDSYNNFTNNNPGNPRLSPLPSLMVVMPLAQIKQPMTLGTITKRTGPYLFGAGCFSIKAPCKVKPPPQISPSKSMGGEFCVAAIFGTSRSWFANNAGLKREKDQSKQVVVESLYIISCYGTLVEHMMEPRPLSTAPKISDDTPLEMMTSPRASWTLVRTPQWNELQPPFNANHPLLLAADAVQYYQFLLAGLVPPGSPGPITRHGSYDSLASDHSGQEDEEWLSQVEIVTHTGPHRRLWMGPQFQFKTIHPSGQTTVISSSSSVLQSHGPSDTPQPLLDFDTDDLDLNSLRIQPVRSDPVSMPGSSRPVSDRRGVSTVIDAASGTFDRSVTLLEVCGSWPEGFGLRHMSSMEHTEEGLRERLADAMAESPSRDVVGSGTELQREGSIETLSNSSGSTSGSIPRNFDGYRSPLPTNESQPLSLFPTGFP
UniProt Q99728: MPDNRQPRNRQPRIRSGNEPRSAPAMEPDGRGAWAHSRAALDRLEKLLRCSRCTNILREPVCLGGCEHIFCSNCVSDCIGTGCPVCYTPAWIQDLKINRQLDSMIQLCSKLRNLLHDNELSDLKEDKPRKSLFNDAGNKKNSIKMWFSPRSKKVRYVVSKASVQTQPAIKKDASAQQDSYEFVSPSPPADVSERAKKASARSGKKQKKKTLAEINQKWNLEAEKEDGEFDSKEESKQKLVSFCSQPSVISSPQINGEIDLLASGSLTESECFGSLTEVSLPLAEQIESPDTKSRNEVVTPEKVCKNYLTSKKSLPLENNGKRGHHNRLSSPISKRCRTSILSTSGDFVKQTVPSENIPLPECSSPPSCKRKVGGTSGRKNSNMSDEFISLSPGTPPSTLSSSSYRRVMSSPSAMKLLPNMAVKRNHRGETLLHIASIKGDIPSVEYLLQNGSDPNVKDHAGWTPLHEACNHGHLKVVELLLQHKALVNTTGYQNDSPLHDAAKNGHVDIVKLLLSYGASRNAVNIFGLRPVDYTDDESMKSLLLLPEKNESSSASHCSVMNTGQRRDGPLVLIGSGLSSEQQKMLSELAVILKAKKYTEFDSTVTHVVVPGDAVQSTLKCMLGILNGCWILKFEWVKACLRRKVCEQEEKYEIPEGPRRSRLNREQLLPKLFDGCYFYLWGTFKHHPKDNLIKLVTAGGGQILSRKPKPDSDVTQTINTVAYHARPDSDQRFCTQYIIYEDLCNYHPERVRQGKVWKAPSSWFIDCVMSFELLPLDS
UniProt Q6QNY0: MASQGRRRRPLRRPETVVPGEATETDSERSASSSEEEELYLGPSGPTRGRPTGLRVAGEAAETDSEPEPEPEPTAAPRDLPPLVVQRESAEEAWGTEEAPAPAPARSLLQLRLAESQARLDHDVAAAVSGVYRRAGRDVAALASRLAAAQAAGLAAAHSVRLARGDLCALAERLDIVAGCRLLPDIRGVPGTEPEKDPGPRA
UniProt Q86WA6: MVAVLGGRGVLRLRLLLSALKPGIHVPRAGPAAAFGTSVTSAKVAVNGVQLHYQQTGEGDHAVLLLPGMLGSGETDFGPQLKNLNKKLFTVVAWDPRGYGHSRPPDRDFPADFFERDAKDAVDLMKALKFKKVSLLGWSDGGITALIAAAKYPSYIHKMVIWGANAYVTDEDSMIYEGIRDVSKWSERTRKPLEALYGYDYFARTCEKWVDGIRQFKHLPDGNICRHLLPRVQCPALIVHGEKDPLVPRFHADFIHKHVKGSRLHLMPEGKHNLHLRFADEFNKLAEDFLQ
UniProt O75934: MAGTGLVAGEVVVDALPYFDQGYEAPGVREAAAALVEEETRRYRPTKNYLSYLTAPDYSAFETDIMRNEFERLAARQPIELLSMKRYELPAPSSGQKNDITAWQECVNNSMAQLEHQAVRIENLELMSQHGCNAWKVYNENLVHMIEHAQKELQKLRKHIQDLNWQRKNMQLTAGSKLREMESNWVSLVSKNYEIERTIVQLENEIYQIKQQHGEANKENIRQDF
UniProt Q96KE9: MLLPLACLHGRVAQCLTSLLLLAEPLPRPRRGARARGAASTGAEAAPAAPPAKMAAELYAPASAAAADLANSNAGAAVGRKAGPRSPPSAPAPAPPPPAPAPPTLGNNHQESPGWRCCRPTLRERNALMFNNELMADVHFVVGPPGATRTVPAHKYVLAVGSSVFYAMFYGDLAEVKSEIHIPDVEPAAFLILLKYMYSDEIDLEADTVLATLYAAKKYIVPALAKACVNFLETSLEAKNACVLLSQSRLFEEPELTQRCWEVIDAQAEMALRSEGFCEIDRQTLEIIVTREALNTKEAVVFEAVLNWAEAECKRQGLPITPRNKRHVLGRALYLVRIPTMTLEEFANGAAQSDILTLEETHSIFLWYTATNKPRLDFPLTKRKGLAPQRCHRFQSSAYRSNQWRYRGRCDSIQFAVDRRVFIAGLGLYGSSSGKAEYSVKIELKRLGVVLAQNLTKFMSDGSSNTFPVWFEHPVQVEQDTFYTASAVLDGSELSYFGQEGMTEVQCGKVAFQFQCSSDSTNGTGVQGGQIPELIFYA
UniProt O15155: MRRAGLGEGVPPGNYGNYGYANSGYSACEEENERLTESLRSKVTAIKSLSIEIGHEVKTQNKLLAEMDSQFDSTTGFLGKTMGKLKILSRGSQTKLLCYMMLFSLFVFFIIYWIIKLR
UniProt Q9H3K6: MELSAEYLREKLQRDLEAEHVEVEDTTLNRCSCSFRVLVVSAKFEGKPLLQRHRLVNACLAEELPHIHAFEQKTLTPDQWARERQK
UniProt Q9UHR4: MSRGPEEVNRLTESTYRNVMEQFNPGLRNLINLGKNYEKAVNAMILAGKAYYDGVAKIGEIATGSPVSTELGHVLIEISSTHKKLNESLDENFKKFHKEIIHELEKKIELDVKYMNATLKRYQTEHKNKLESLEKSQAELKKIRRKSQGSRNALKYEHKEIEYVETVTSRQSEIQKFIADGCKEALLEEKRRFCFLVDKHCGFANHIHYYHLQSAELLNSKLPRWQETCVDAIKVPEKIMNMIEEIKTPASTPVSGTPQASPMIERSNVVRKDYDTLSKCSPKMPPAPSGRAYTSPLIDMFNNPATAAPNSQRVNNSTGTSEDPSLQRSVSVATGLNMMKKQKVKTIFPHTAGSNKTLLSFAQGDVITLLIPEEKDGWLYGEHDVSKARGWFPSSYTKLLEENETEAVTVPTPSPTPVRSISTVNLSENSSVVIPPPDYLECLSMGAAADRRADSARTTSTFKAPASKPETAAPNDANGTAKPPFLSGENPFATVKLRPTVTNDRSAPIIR
UniProt P46736, whole entry, looked up: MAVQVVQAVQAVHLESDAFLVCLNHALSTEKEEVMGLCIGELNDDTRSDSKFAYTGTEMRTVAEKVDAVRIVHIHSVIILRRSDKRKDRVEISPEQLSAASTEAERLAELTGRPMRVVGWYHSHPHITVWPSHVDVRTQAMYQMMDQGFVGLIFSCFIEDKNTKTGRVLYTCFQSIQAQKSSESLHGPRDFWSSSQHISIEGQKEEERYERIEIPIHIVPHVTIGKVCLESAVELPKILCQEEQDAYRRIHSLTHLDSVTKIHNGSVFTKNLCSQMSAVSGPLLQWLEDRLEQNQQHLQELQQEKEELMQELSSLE

What was measured:
Assay in all cases: log2 fold change, soluble protein after heating vs DMSO (PISA); higher = thermal stabilisation; K562 lysate, 10 uM; active = over 0.2 and 3.5 SD of the protein, either way, in both replicates (recomputed)
[1] = compound: CCCS(=O)(=O)Nc1ccc(F)c(C(=O)c2c[nH]c3ncc(-c4ccc(Cl)cc4)cc23)c1F [vemurafenib]
Summary of the method: (§1)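 Values give the log-two fold change in thermal stability against solvent controls, from duplicates. Crude K562 extract at 1 mg/mL protein, made by dounce homogenisation in PBS pH 7.4 with 1 mM MgCl2, was treated with 10 μM compound for 30 min. After 3 min heating across 48°C-58°C, aliquots were pooled, adjusted to 0.5% NP-40 at 4°C and centrifuged at 21,000xg for 90 min. The supernatant was measured by TMTpro 16plex LC-MS/MS with channel sums equalised.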

[2] = compound: CCCS(=O)(=O)Nc1ccc(F)c(C(=O)c2c[nH]c3ncc(Cl)cc23)c1F
Summary of the method: as §1

[3] = compound: CCN(CCCOc1ccc2c(Nc3cc(CC(=O)Nc4cccc(F)c4)[nH]n3)ncnc2c1)CCOP(=O)(O)O [barasertib]
Summary of the method: as §1

[4] = compound: CC[C@@H]1C(=O)N(C)c2cnc(Nc3ccc(C(=O)NC4CCN(C)CC4)cc3OC)nc2N1C1CCCC1
Summary of the method: as §1

[5] = compound: CC[C@@H]1C(=O)N(C)c2cnc(Nc3ccc(C(=O)N[C@H]4CC[C@H](N5CCN(CC6CC6)CC5)CC4)cc3OC)nc2N1C(C)C [volasertib]
Summary of the method: as §1

[6] = compound: CCn1c(C(=O)N(C2CC2)C2CC2)cc2c3c(ncn3C)c(Nc3cc(C)n(C)n3)nc21
Summary of the method: as §1

[7] = compound: CCn1cc(-c2ccnc3[nH]c(-c4cccc(CN(C)C)c4)cc23)c(-c2ccc(NC(=O)N(C)C)cc2)n1
Summary of the method: as §1

[8] = compound: CN1CCC(CNc2ccc3ncc(-c4cccc(OC(F)(F)F)c4)n3n2)CC1
Summary of the method: as §1

[9] = compound: CN1CCN(CCOc2cc(OC3CCOCC3)c3c(Nc4c(Cl)ccc5c4OCO5)ncnc3c2)CC1 [saracatinib]
Summary of the method: as §1

[10] = compound: CN1CCN(c2nc(C3=C(c4c[nH]c5ccccc45)C(=O)NC3=O)c3ccccc3n2)CC1 [sotrastaurin]
Summary of the method: as §1

Measured: log2 fold change

BAG2 (UniProt O95816)
inactive: [1] -0.012 | [2] -0.032 | [3] 0.026 | [4] 0.019 | [5] 0.029 | [6] 0.009 | [7] 0.072 | [8] -0.021 | [9] -0.016 | [10] 0.006

BRIX1 (UniProt Q8TDN6)
inactive: [1] -0.025 | [2] 0.01 | [3] 0.011 | [4] -0.014 | [5] -0.009 | [6] 0.008 | [7] -0.033 | [8] 0.02 | [9] 0.004 | [10] -0.005

BCL10 (UniProt O95999)
inactive: [1] -0.009 | [2] -0.007 | [3] 0.015 | [4] 0.031 | [5] 0.029 | [6] 0.026 | [7] 0.035 | [8] 0.02 | [9] 0.03 | [10] 0.013

BMP2K (UniProt Q9NSY1)
inactive: [1] -0.017 | [2] -0.105 | [3] -0.017 | [4] 0.043 | [5] 0.056 | [6] 0.062 | [7] 0.03 | [8] 0.865 | [9] -0.018 | [10] 0.048

BLOC1S4 (UniProt Q9NUP1)
inactive: [1] -0.008 | [2] -0.001 | [3] 0.044 | [4] 0.063 | [5] 0.031 | [6] -0.01 | [7] 0.047 | [8] -0.006 | [9] 0.035 | [10] 0.03

BRCA1 isoform 7 (UniProt P38398)
inactive: [1] 0.003 | [2] -0.07 | [3] 0.014 | [4] 0.016 | [5] 0.031 | [6] 0.031 | [7] 0.05 | [8] -0.107 | [9] 0.01 | [10] -0.019

BMS1 (UniProt Q14692)
inactive: [1] -0.038 | [2] 0.023 | [3] 0.127 | [4] -0.027 | [5] -0.018 | [6] 0.012 | [7] -0.054 | [8] 0.006 | [9] -0.004 | [10] 0.005

BRI3BP (UniProt Q8WY22)
inactive: [1] 0.057 | [2] -0.068 | [3] -0.025 | [4] -0.223 | [5] -0.025 | [6] 0.069 | [7] 0.114 | [8] 0.096 | [9] 0.136

BAIAP2 (UniProt Q9UQB8)
inactive: [1] -0.004 | [2] -0.009 | [3] -0.01 | [4] 0.007 | [5] 0.031 | [6] 0.015 | [7] 0.033 | [8] -0.037 | [9] 0.015 | [10] -0.046

BLVRA (UniProt P53004)
inactive: [1] 0.007 | [2] 0.008 | [3] -0.024 | [4] -0.041 | [5] -0.014 | [6] -0.013 | [7] 0.045 | [8] -0.029 | [9] -0.019 | [10] 0.004

BLMH (UniProt Q13867)
inactive: [1] -0.011 | [2] -0.013 | [3] -0.051 | [4] -0.018 | [5] 0.007 | [6] 0.043 | [7] -0.067 | [8] 0.09 | [9] -0.011 | [10] 0.048

BCCIP (UniProt Q9P287)
inactive: [1] -0.016 | [2] 0.013 | [3] -0.009 | [4] -0.035 | [5] -0.006 | [6] 0.063 | [7] 0.024 | [8] -0.055 | [9] -0.04 | [10] 0.05

BOD1L1 (UniProt Q8NFC6)
inactive: [1] -0.02 | [2] 0.015 | [3] 0.035 | [4] 0.068 | [5] 0.02 | [6] -0.026 | [7] -0.046 | [8] 0.04 | [9] 0.012 | [10] 0.003

BCR (UniProt P11274)
inactive: [1] 0.012 | [2] 0.043 | [3] -0.021 | [4] -0.062 | [5] -0.056 | [6] 0.015 | [7] -0.112 | [8] -0.029 | [9] 0.024 | [10] -0.018

BCAS3 isoform 8 (UniProt Q9H6U6)
inactive: [1] 0.025 | [2] 0.03 | [3] -0.089 | [4] 0.054 | [5] -0.023 | [6] 0.032 | [7] 0.01 | [8] 0.105 | [9] 0.041 | [10] -0.042

BARD1 (UniProt Q99728)
inactive: [1] 0.074 | [2] 0.221 | [3] -0.056 | [4] 0.024 | [5] 0 | [6] 0 | [7] -0.135 | [8] -0.005 | [9] -0.042 | [10] 0.073

BLOC1S3 (UniProt Q6QNY0)
inactive: [1] -0.006 | [2] 0.038 | [3] 0.014 | [4] 0.014 | [5] 0.053 | [6] 0.014 | [7] -0.052 | [8] 0.039 | [9] -0.085 | [10] -0.003

BLOC1S6 (UniProt Q9UL45)
inactive: [1] 0.005 | [2] 0.007 | [3] -0.012 | [4] 0.013 | [5] 0.032 | [6] 0.043 | [7] 0.048 | [8] 0.009 | [9] -0.034 | [10] -0.06

BPHL (UniProt Q86WA6)
inactive: [1] -0.13 | [2] 0.013 | [3] 0.058 | [4] 0.015 | [5] 0 | [6] 0.069 | [7] 0.063 | [8] 0 | [9] -0.058 | [10] 0.084

BCAS2 (UniProt O75934)
inactive: [1] 0.053 | [2] 0.019 | [3] 0.11 | [4] 0.03 | [5] -0.023 | [6] -0.006 | [7] -0.066 | [8] -0.037 | [9] -0.024 | [10] -0.013

BTBD6 (UniProt Q96KE9)
inactive: [1] 0.137 | [2] 0.039 | [3] -0.037 | [4] 0.299 | [5] 0.053 | [6] -0.33 | [7] -0.52 | [8] 0.301 | [9] 0.044 | [10] -0.042

BTD isoform 3 (UniProt P43251)
inactive: [1] 0.021 | [2] -0.054 | [3] -0.189 | [4] 0.039 | [5] 0.007 | [6] -0.022 | [7] -0.026 | [8] 0.112 | [9] -0.112 | [10] -0.047

BET1 (UniProt O15155)
inactive: [1] 0.107 | [2] -0.012 | [3] 0.028 | [4] -0.019 | [5] 0.032 | [6] -0.021 | [7] 0.044 | [8] -0.009 | [9] 0.031 | [10] -0.033

BOLA2 (UniProt Q9H3K6)
inactive: [1] -0.086 | [2] -0.043 | [3] 0.129 | [4] -0.068 | [5] 0.004 | [6] 0.067 | [8] -0.04 | [9] -0.033 | [10] -0.038
active: [7] 0.604

BAIAP2L1 (UniProt Q9UHR4)
inactive: [1] 0.002 | [2] -0.001 | [3] -0.004 | [4] 0.017 | [5] 0.015 | [6] 0.005 | [7] 0.051 | [8] -0.021 | [9] -0.015 | [10] -0.004

BRCC3 (UniProt P46736)
inactive: [1] -0.015 | [2] -0.012 | [3] -0.032 | [4] -0.062 | [5] 0.009 | [6] -0.072 | [7] -0.072 | [8] 0.086 | [9] 0.004 | [10] -0.031

BAP1 (UniProt Q92560)
inactive: [1] 0.021 | [2] -0.005 | [3] -0.046 | [4] 0.087 | [5] 0.006 | [6] -0.065 | [7] 0.002 | [8] -0.035 | [9] 0.022 | [10] -0.007
